Measurements taken from patent US20210230203A1, “Amphiphilic Kanamycin Compositions and Methods” (priority 2020, published 2021).
Values after ≈ are worked out from the molar mass of the structure shown.

Legend:
[1] = test system: S. aureus (ATCC 43300) MRSA; assay: microbe, parasite or virus in culture; type: cell-based; conditions: Staphylococcus aureus, read-out: Minimum inhibitory concentration
[2] = test system: S. aureus (ATCC 33591) MRSA; assay: microbe, parasite or virus in culture; type: cell-based; conditions: Staphylococcus aureus, read-out: Minimum inhibitory concentration

Compound: CN[C@H](CC(C)C)C(=O)N[C@H]1C(=O)N[C@@H](CC(N)=O)C(=O)N[C@H]2C(=O)N[C@H]3C(=O)N[C@H](C(=O)N[C@H](C(=O)O)c4cc(O)cc(O)c4-c4cc3ccc4O)[C@H](O)c3ccc(c(Cl)c3)Oc3cc2cc(c3O[C@@H]2O[C@H](CO)[C@@H](O)[C@H](O)[C@H]2O[C@H]2C[C@](C)(N)[C@H](O)[C@H](C)O2)Oc2ccc(cc2Cl)[C@H]1O [Vancomycin, reference compound]
- MIC [1]: 2 µg/mL (≈ 1.38 µM)
- MIC [2]: 2 µg/mL (≈ 1.38 µM)
